Results are given in words; binding and its absence hold for the method and conditions named. Binding seen in cells or lysates may run through a third protein. Some entries that bind do so weakly or less than the wild type. Where a sequence is shown, tags or fusion partners need not be part of it.

In the assay the target is T1, CENTRIN 3 (CETN3), Myc-tagged (human) (UniProt O15182).
T1 sequence: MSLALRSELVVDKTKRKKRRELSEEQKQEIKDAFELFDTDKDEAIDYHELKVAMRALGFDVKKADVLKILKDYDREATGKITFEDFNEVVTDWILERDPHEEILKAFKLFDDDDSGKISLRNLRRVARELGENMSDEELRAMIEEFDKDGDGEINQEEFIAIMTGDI
The assay can be described thus: co-IP; HEK 293T cells transfected with the tagged plasmids, lysed after 48 h; supernatant divided and incubated with Myc-, Flag- and IgG-magnetic beads 4 to 5 h at 4 °C; wash buffer 0.1% Triton X-100, 50 mM Tris-Cl pH 7.4, 150 mM or 500 mM NaCl; Western blot. On the technique in general: In western blotting, separated proteins are transferred to a membrane and probed.

B1: USP44, Flag-tagged (enzyme, UniProt Q9H0E7 1-712)
chain: MLAMDTCKHVGQLQLAQDHSSLNPQKWHCVDCNTTESIWACLSCSHVACGRYIEEHALKHFQESSHPVALEVNEMYVFCYLCDDYVLNDNTTGDLKLLRRTLSAIKSQNYHCTTRSGRFLRSMGTGDDSYFLHDGAQSLLQSEDQLYTALWHRRRILMGKIFRTWFEQSPIGRKKQEEPFQEKIVVKREVKKRRQELEYQVKAELESMPPRKSLRLQGLAQSTIIEIVSVQVPAQTPASPAKDKVLSTSENEISQKVSDSSVKRRPIVTPGVTGLRNLGNTCYMNSVLQVLSHLLIFRQCFLKLDLNQWLAMTASEKTRSCKHPPVTDTVVYQMNECQEKDTGFVCSRQSSLSSGLSGGASKGRKMELIQPKEPTSQYISLCHELHTLFQVMWSGKWALVSPFAMLHSVWRLIPAFRGYAQQDAQEFLCELLDKIQRELETTGTSLPALIPTSQRKLIKQVLNVVNNIFHGQLLSQVTCLACDNKSNTIEPFWDLSLEFPERYQCSGKDIASQPCLVTEMLAKFTETEALEGKIYVCDQCNSKRRRFSSKPVVLTEAQKQLMICHLPQVLRLHLKRFRWSGRNNREKIGVHVGFEEILNMEPYCCRETLKSLRPECFIYDLSAVVMHHGKGFGSGHYTAYCYNSEGGFWVHCNDSKLSMCTMDEVCKAQAYILFYTQRVTENGHSKLLPPELLLGSQHPNEDADTSSNEILS
B1: the binding result is on record as “binds”.

B2: USP49, Flag-tagged (enzyme, UniProt Q70CQ1 1-688)
chain: MDRCKHVGRLRLAQDHSILNPQKWCCLECATTESVWACLKCSHVACGRYIEDHALKHFEETGHPLAMEVRDLYVFCYLCKDYVLNDNPEGDLKLLRSSLLAVRGQKQDTPVRRGRTLRSMASGEDVVLPQRAPQGQPQMLTALWYRRQRLLARTLRLWFEKSSRGQAKLEQRRQEEALERKKEEARRRRREVKRRLLEELASTPPRKSARLLLHTPRDAGPAASRPAALPTSRRVPAATLKLRRQPAMAPGVTGLRNLGNTCYMNSILQVLSHLQKFRECFLNLDPSKTEHLFPKATNGKTQLSGKPTNSSATELSLRNDRAEACEREGFCWNGRASISRSLELIQNKEPSSKHISLCRELHTLFRVMWSGKWALVSPFAMLHSVWSLIPAFRGYDQQDAQEFLCELLHKVQQELESEGTTRRILIPFSQRKLTKQVLKVVNTIFHGQLLSQVTCISCNYKSNTIEPFWDLSLEFPERYHCIEKGFVPLNQTECLLTEMLAKFTETEALEGRIYACDQCNSKRRKSNPKPLVLSEARKQLMIYRLPQVLRLHLKRFRWSGRNHREKIGVHVVFDQVLTMEPYCCRDMLSSLDKETFAYDLSAVVMHHGKGFGSGHYTAYCYNTEGGFWVHCNDSKLNVCSVEEVCKTQAYILFYTQRTVQGNARISETHLQAQVQSSNNDEGRPQTFS
In the case of B2, the binding entry is on record as “binds”.

(Values after PMC12514221.)
